According to PMC3769253:

What was measured:
[1] = molecular target: MBP-CagH (H. pylori 26695); test: co-IP; soluble extract of E. coli BL-21(DE3) co-expressing the two recombinant proteins; anti-CagI, anti-CagH or anti-Hp1489 antibody; Western blotting
[2] = molecular target: recombinant Hp1489 (GST-tag) (H. pylori) (UniProt O26022); test: as above

B1: recombinant CagI (without tag), Δ32N (domain or fragment, UniProt O25273 33-381)
chain: AIQADAQAKQKTAQAELKAIEAQSSAKEKAIQAQIEGELRTQLATMSAMLKGANGVINGVNGMTGGFFAGSDILLGVMEGYSSALSALGGNVKMIVEKQKINTQTEIQNMQIALQKNNEIIKLKMNQQNALLEALKNSFEPSVTLKTQMEMLSQALGSSSDNAQYIAYNTIGIKAFEETLKGFETWLKVAMQKATLIDYNSLTGQALFQSAIYAPALSFFSSMGAPFGIIETFTLAPTKCPYLDGLKISACLMEQVIQNYRMIVALIQNKLSDADFQNIAYLNGINGEIKTLKGSVDLNALIEVAILNAENHLNYIENLEKKADLWEEQLKLERETTARNIASSKVIVK
- binding [1]: binds
- binding [2]: binds

These are yes or no findings as the source states them, for the method shown. In cells and extracts the contact can be indirect. Binding calls can cover weak binding; strength is not graded here. Tags and fused reporters may be left off the sequences shown.
